The whole screen tested about 320,000 compounds, of which about 2,100 (0.66%) were called active. The shares of active, inactive and inconclusive entries below differ from those in the screen. Calls follow the shape of the dose curve; as a rule, active = well fitted inhibition curve with a large enough effect in the signal ratio, with a control signal flat (not every such curve was filed as active); inconclusive = small, poorly fitted or top-dose-only effect, or effect the other way, or a change in a side signal; inactive = flat fitted curve, though single readings scatter; the % refers to the signal ratio. Where the call is inconclusive, the potency comes from a doubtful curve fit.
Assay: qHTS Assay for Lipid Storage Modulators in Drosophila S3 Cells
Conditions: BODIPY lipid droplet fluorescence, 18-24 h, cells fed with added oleic acid; lipid storage change, negative = inhibition: at 46.1 µM (top of the series) unless noted
Method in brief: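 Drosophila S3 cells loaded with oleic acid (400 uM, as added) and compounds at several concentrations; lipid droplets imaged by 488-nm laser-scanning cytometry, 500–530 nm intensity and object ratio to cell channel. Percent activity normalized to 20 uM Triacsin C.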
% is scaled to controls: 0 for no effect and ±100 for the full control effect; potency is read from the fitted curve at half-maximal effect.

SMILES | lipid storage change, negative = inhibition | Potency
C[n+]1c(-c2ccccc2)cc(CCCCc2cc(-c3ccccc3)[n+](C)c(-c3ccccc3)c2)cc1-c1ccccc1 | inconclusive: -60.4% | 
COCCOC(=O)c1c(N)n(Cc2ccccc2)c2nc3ccccc3nc12 |  | inconclusive: 0.103 µM [activator, full curve, poor fit]
CN1C2CCC1CC(OC(=O)c1cc(Cl)cc(Cl)c1)C2 (stereo not given) |  | active: 23.1 µM
CCC(=NCCCN1CCOCC1)c1c(O)n(Cc2ccccc2)c(=O)[nH]c1=O | inconclusive: 21.4% | 
O=P(C(c1c[nH]c2ccccc12)N1CCOCC1)(N1CCOCC1)N1CCOCC1 (stereo not given) | inconclusive: 2.22% | 
CCOP(=O)(OCC)C(O)c1ccc(OC)cc1OC (stereo not given) | inconclusive: -16.7% | 
S=P(Nn1cnnc1)(c1ccccc1)c1ccccc1 | inconclusive: 9.48% | 
CC(C)Oc1ccc(CNC(=O)Cn2c(=O)oc3ccccc32)cc1 |  | inconclusive: 0.517 µM [cytotoxic, single point]
COc1cc(OC)c(OC)cc1CNC(C)C(O)c1ccccc1 (stereo not given) |  | inconclusive: 18.4 µM [activator, single point]
CC1(C)CN2C(c3ccc(Cl)cc3)N2C1 (stereo not given) | inconclusive: -38.9% | 
COc1ccccc1-n1c(-c2ccoc2)nc2ccccc2c1=O | inconclusive: 57.6% [activator] | 
O=c1c2ccccc2nc(/C=C/c2ccc3c(c2)OCO3)n1-c1cccc(O)c1 |  | inconclusive: 0.146 µM [activator, full curve]
COC(=O)C1=C(c2ccc(F)cc2OCc2ccccc2)C[C@@H]2CC[C@H]1N2C(=O)NCCNC(C)=O | inconclusive: -66.5% | 
COc1ccc(-c2nn(-c3ccccc3)cc2C(=O)N2c3ccc(C)cc3C3CN(C)CCC32)cc1 (stereo not given) |  | inconclusive: 0.651 µM [activator, single point]
COC(=O)C1=C(c2ccccc2OCc2ccccc2)C[C@@H]2CC[C@H]1N2C(=O)NCc1ccc(N(C)C)cc1 |  | active: 23.1 µM
CC(=NCc1ccc2c(c1)OCO2)c1c(O)n(C)c(=O)n(C)c1=O |  | inconclusive: 4.11 µM [activator, partial curve]
CN1CCN(c2ccc(N)cc2)CC1 |  | inconclusive: 23.1 µM [falling, single point]
Cc1ccc(N)c(C)c1 |  | inconclusive: 1.03 µM [falling, full curve]
CN(c1ccccc1)c1ccc([N+](=O)[O-])c2nonc12 |  | inconclusive: 16.4 µM [cytotoxic, single point]
CCC1C=CC=CC[C@H](C)[C@@H](O)[C@](C)(O)C(=O)[C@@H](C)[C@H](O)[C@@H](C)C(=O)[C@H](C)[C@@H](O)[C@H](C)C=CC(=O)OC2[C@@H](C)C(CC1)OC1(CC[C@@H](C)C(C[C@H](C)O)O1)[C@@H]2C (stereo not given in full) |  | inconclusive: 0.0002 µM [falling, full curve, poor fit]
CN1C(=O)/C(=C\N2CCc3ccccc32)C(=O)NC1=S | inconclusive: 45.5% | 
OCC1(CO)COC(c2cccnc2)N1 (stereo not given) |  | inconclusive: 1.84 µM [falling, full curve]
CCC1C2CC3C4N(C)c5ccccc5C45CC(C2C5O)N3[C@@H]1O (stereo not given in full) |  | inconclusive: 0.58 µM [activator, single point]
C=CCNC(=O)c1c(N)n(Cc2ccco2)c2nc3ccccc3nc12 | inconclusive: -11.4% | 
Cc1cccc(CN2CCN(C(=O)Cc3ccccc3)CC2)c1 | inconclusive: 14.3% | 

SMILES | lipid storage change, negative = inhibition | Potency
CCN1C(=O)/C(=C/c2ccc3c(c2)CCN3CCCCl)C(=O)NC1=S | inconclusive: 44.3% | 
Clc1ccccc1CN1CCN(c2cccc3[nH]ccc23)CC1 | inconclusive: -10.6% | 
COC(=O)C1=C(c2cccc(C#N)c2)C[C@@H]2CC[C@H]1N2C(=O)N1CCCCC1 | inconclusive: 1.6% | 
Cc1ccc(CN2CCCC(C(=O)c3ccc4c(c3)OCO4)C2)cc1C (stereo not given) | inconclusive: -10.6% | 
COc1cc(OC)cc(-n2nc(C(=O)N3CCC4(CC3)OCCO4)c3ccccc3c2=O)c1 |  | inconclusive: 29.1 µM [activator, single point]
Cc1cc(=O)oc2c(C)c(OCC(=O)N3CCN(Cc4ccc5c(c4)OCO5)CC3)ccc12 |  | inconclusive: 0.0052 µM [activator, full curve, poor fit]
COC(=O)c1ccc(CN2CCN(Cc3ccccc3)CC2)cc1 | inconclusive: 25.7% | 
CCOC(=O)c1cccc(-[n+]2c(-c3ccccc3)cc(-c3ccccc3)cc2-c2ccccc2)c1 |  | active: 13 µM
CP(=O)(Nc1ccccc1)C(Cl)(Cl)Cl (stereo not given) | inconclusive: -32.5% | 
Cc1ccc(S(=O)(=O)N(C)C)cc1NC(=O)C(C)[N+]12CCN(CC1)CC2 (stereo not given) | inconclusive: 29.3% | 
Cc1ccccc1C1=NCC(=S)Nc2ccc(Cl)cc21 | inconclusive: -41% | 
C=CCn1c(O)c(C(C)=Nc2ccc(N(CC)CC)cc2)c(=O)[nH]c1=O | inconclusive: 15.9% | 
COc1ccc(-n2nc(C(=O)NCC(=O)N3CCC4(CC3)OCCO4)c3ccccc3c2=O)cc1 | inconclusive: -100% | 
O=C1NC(=O)N(Cc2ccccc2)C(=O)/C1=C\c1ccco1 |  | inconclusive: 3.26 µM [falling, partial curve, poor fit]
Cc1c(CCN)ccc2c1[nH]c1ccccc12 | inconclusive: -17.3% | 
O=c1c2ccccc2nc(-c2ccccc2)n1-c1nccs1 | inconclusive: 24% | 
CCCCC(=O)N/N=C/c1c(O)n(CCC2=CCCCC2)c(=O)[nH]c1=O |  | inconclusive: 2.06 µM [activator, full curve]
OCC12CO[C@@H]3c4ccccc4[C@H](OC1)N32 (stereo not given in full) |  | inconclusive: 0.517 µM [falling, full curve]
CCc1n[nH]c(CCN)n1 |  | inconclusive: 0.0411 µM [falling, full curve, poor fit]
COC(=O)C1=C(c2ccc(F)cc2OCc2ccccc2)C[C@@H]2CC[C@H]1N2C(=O)NC1CC1 | inconclusive: -12.6% | 
CNCC(O)c1ccc(O)cc1 (stereo not given) | inconclusive: 5.3% | 
Cc1ccc(N2C(=O)NC(=O)/C(=C\c3cccn3C(C)(C)C)C2=O)cc1 | inconclusive: 33.9% [at 0.369 µM] | 
Cc1cccc(NC(N)=S)c1 | inconclusive: 44.4% | 
CN1CCc2c(C#N)c(Cl)nc(Cl)c2C1 |  | inconclusive: 20.6 µM [falling, single point]
O=c1c(C=NCCN2CCNCC2)c(O)n(C2CCCCC2)c(=O)n1C1CCCCC1 |  | inconclusive: 0.411 µM [falling, full curve, poor fit]

Taken from above.
lipid storage change, negative = inhibition, COc1ccccc1-n1c(-c2ccoc2)nc2ccccc2c1=O reads inconclusive: 57.6% [activator]
Potency, CN1C2CCC1CC(OC(=O)c1cc(Cl)cc(Cl)c1)C2 (stereo not given) reads active: 23.1 µM
lipid storage change, negative = inhibition, COC(=O)C1=C(c2ccc(F)cc2OCc2ccccc2)C[C@@H]2CC[C@H]1N2C(=O)NC1CC1 reads inconclusive: -12.6%
lipid storage change, negative = inhibition, Cc1cccc(NC(N)=S)c1 reads inconclusive: 44.4%
lipid storage change, negative = inhibition, C[n+]1c(-c2ccccc2)cc(CCCCc2cc(-c3ccccc3)[n+](C)c(-c3ccccc3)c2)cc1-c1ccccc1 reads inconclusive: -60.4%
Potency, COCCOC(=O)c1c(N)n(Cc2ccccc2)c2nc3ccccc3nc12 reads inconclusive: 0.103 µM [activator, full curve, poor fit]

Carrying on:

SMILES | lipid storage change, negative = inhibition | Potency
COC(=O)C1=C(c2ccc(OC)c(OC)c2)C[C@@H]2CC[C@H]1N2C(=O)NCCOc1ccccc1 | inconclusive: 12.6% | 
CCCOP(=O)(c1ccc(N(C)C)cc1)C(O)c1ccccc1OC (stereo not given) |  | inconclusive: 7.31 µM [falling, partial curve, poor fit]
O=C(c1cccnc1)c1cc2ccccc2[nH]1 | inconclusive: 26.7% | 
CC(C)N1CCN(Cc2ccc3c(c2)OCCO3)CC1CCO (stereo not given) |  | inconclusive: 6.51 µM [falling, single point]
Cc1ccc(CC2C(=O)N(C)C(=O)N(C)C2=O)s1 |  | inconclusive: 6.51 µM [cytotoxic, single point]
CCC(=NCCN1CCOCC1)c1c(O)n(-c2ccccc2C)c(=O)[nH]c1=O | inconclusive: 0.465% | 
COc1ccccc1NC(=O)c1cn(CCC#N)nc1-c1ccc(F)cc1 | inconclusive: 6.98% | 
CCCCn1c(O)c(C(C)=NCCc2ccccc2)c(=O)[nH]c1=O | inactive | 
O=C(COC(=O)Cc1ccccc1)Nc1ccc(F)cc1 | inconclusive: -1.65% | 
CC(C)(C)NC(=O)C1CC2CCCCC2CN1 (stereo not given) | inconclusive: -22% | 
O=c1[nH]c(=O)n(CCC2=CCCCC2)c(O)c1C=NCCN1CCNCC1 | inconclusive: -26% | 
C=CCC1C(=O)NC(=S)NC1=O | inconclusive: -7.54% | 
CCOc1ccc(-n2c(O)c(C=NCCN(CC)CC)c(=O)[nH]c2=O)cc1 | inconclusive: -14% | 
COC(=O)C1=C(c2ccc(OC(F)(F)F)cc2)C[C@@H]2CC[C@H]1N2C(=O)NCCOc1ccc(OC)cc1 | inconclusive: -66.1% | 
Cc1ccc(-n2c(O)c(C=Nc3ccccc3N)c(=O)[nH]c2=O)cc1C | inconclusive: 12.4% | 
CN(C)C(=O)Oc1cccc2c(OC(=O)N(C)C)cccc12 | inconclusive: -2.72% | 
O=C(O)c1ccccc1-c1ccc(C=C2C(=O)N(c3ccccc3)C(=S)N(c3ccccc3)C2=O)o1 |  | inconclusive: 3.66 µM [activator, partial curve]
O=C(N/N=C/c1c(O)n(-c2ccccc2)c(=O)[nH]c1=O)c1ccncc1 |  | inconclusive: 29.1 µM [falling, single point]
CN(C)C(=O)Oc1cccc(NC(=O)N2CCOCC2)c1 | inactive | 
CC(=NC1CCN(Cc2ccccc2)CC1)c1c(O)n(C)c(=O)n(C)c1=O |  | active: 29.1 µM
CC1(C)C2CC=C(CN3CCC(O)CC3)C1C2 (stereo not given) | inconclusive: -23.7% | 
C=CCNC(=S)/N=C/c1c(O)[nH]c(=O)[nH]c1=O | inconclusive: 119% | 
Cc1cc(C(=O)OCC(=O)Nc2c(F)cccc2F)c(C)n1C1CC1 |  | inconclusive: 0.82 µM [activator, single point]
O=C1/C(=C/c2cc([N+](=O)[O-])ccc2Cl)N2CCC1CC2 | inconclusive: -48% | 
COCCNC(=O)Cn1cc(C(=O)c2ccccc2F)c2ccccc21 |  | inconclusive: 6.51 µM [activator, single point]

Reference: PubChem BioAssay AID2685 (National Center for Advancing Translational Sciences (NCATS), 2010)
